Data as given in PubChem BioAssay AID1671195 (Yale University, 2021).
Purpose: 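Regulators of LDL receptor activity judged by labelled LDL uptake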 (primary screen). Cell system: human Huh7 hepatoma cells. Knock-down reagent: siRNA pool against human genes, 18 nM. Time to read-out: about 2 to 2.5 days of knockdown, then 8 h LDL uptake. Treatment: DiI-labelled LDL at 30 µg/ml for 8 h, in lipoprotein-deficient serum medium. Measured: 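Fluorescent LDL signal imaged in cells, scaled to the plate median, robust z-score for each replicate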. Reading the numbers: robust z-score: higher = more LDL uptake after knockdown. Call rule: 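Active when two or more replicates show a robust z-score above 2 or below -2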.
Shown is one part, drawn at random, of about 22,000 deposited reagents. About 1,510 of all reagents (6.9%) were called active. 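Active includes knockdowns raising or lowering LDL uptake; positive z-scores mean more uptake, negative mean less.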

| gene | robust z-score, replicate 1 | robust z-score, replicate 2 | robust z-score, replicate 3 | outcome |
| --- | --- | --- | --- | --- |
| EFNA4 (ephrin A4) | -0.2 | 0.106 | -0.576 | inactive |
| DDB1 (damage specific DNA binding protein 1) | 0.625 | -0.841 | -0.221 | inactive |
| KRT33B (keratin 33B) | 2.35 | -0.0103 | 1.64 | inactive |
| KATNAL2 (katanin catalytic subunit A1 like 2) | -0.392 | -0.192 | -0.372 | inactive |
| LINC02709 (long independently transcribed non-coding RNA 2709) | -0.287 | -0.311 | -0.305 | inactive |
| TRMU (tRNA mitochondrial 2-thiouridylase) | -0.0353 | -0.14 | -0.473 | inactive |
| FUNDC1 (FUN14 domain containing 1) | -0.265 | -0.597 | 0.741 | inactive |
| NUBP1 (NUBP iron-sulfur cluster assembly factor 1, cytosolic) | 0.128 | 0.235 | 0.318 | inactive |
| RGL2 (ral guanine nucleotide dissociation stimulator like 2) | -0.886 | -0.214 | -0.698 | inactive |
| ADGRF4 (adhesion G protein-coupled receptor F4) | -0.985 | -0.433 | -1.28 | inactive |
| BMP1 (bone morphogenetic protein 1) | -1.47 | -1.47 | -1.5 | inactive |
| ANP32D (acidic nuclear phosphoprotein 32 family member D) | -0.488 | -0.502 | 0.26 | inactive |
| A3GALT2 (alpha 1,3-galactosyltransferase 2) | -1.55 | -0.827 | -1.49 | inactive |
| SCN4B (sodium voltage-gated channel beta subunit 4) | 3.84 | 3.95 | 3.08 | active |
| BMAL1 (basic helix-loop-helix ARNT like 1) | 1.14 | 1.23 | 1.42 | inactive |
| TNNC2 (troponin C2, fast skeletal type) | -1.9 | -1.2 | -1.83 | inactive |
| USP17L7 (ubiquitin specific peptidase 17 like family member 7) | -0.33 | 0.21 | 0.684 | inactive |
| RPRD2 (regulation of nuclear pre-mRNA domain containing 2) | 0.498 | 0.207 | 0.469 | inactive |
| LOC441002 (retired record) | 0.684 | 0.289 | 0.538 | inactive |
| AXIN2 (axin 2) | -1.08 | 1.31 | -0.656 | inactive |
| ZMYM1 (zinc finger MYM-type containing 1) | 0.715 | 0.343 | 0.563 | inactive |
| EDA2R (ectodysplasin A2 receptor) | -1.53 | -1.44 | -1.48 | inactive |
| CCT4 (chaperonin containing TCP1 subunit 4) | -0.635 | -0.911 | -0.233 | inactive |
| GK2 (glycerol kinase 2) | -2.01 | -1.77 | -1.79 | inactive |
| RAB43P1 (RAB43 pseudogene 1) | 2.24 | 2.76 | 2.95 | active |
| TRAF1 (TNF receptor associated factor 1) | -1.65 | 0.0725 | -0.779 | inactive |
| MAP1LC3C (microtubule associated protein 1 light chain 3 gamma) | -0.698 | -0.224 | -0.664 | inactive |
| KRTAP4-1 (keratin associated protein 4-1) | 5.34 | 3.08 | 5.91 | active |
| BNIP2 (BCL2 interacting protein 2) | -1.17 | -1.12 | -0.855 | inactive |
| BMS1 (BMS1 ribosome biogenesis factor) | 0.857 | -1.05 | 1.56 | inactive |
| RERG (RAS like estrogen regulated growth inhibitor) | -2.05 | -0.463 | -1.38 | inactive |
| TMEM86A (transmembrane protein 86A) | -0.782 | -0.202 | -0.757 | inactive |
| RNPEPL1 (arginyl aminopeptidase like 1) | -1.88 | -1.82 | -1.97 | inactive |
| CBR4 (carbonyl reductase 4) | 2.29 | 1.64 | 1.68 | inactive |
| KHDRBS2 | 5.67 | 4.69 | 5.78 | active |
| CCNY (cyclin Y) | -0.042 | -0.547 | -0.58 | inactive |
| IARS1 (isoleucyl-tRNA synthetase 1) | 0.212 | 0.198 | 0.323 | inactive |
| RGS6 (regulator of G protein signaling 6) | 0.351 | 0.412 | 0.0227 | inactive |

Laid out differently: results already given
{"gene": "SCN4B (sodium voltage-gated channel beta subunit 4)", "robust z-score, replicate 1": 3.84, "robust z-score, replicate 2": 3.95, "robust z-score, replicate 3": 3.08, "outcome": "active"}
{"gene": "BMAL1 (basic helix-loop-helix ARNT like 1)", "robust z-score, replicate 1": 1.14, "robust z-score, replicate 2": 1.23, "robust z-score, replicate 3": 1.42, "outcome": "inactive"}
{"gene": "TNNC2 (troponin C2, fast skeletal type)", "robust z-score, replicate 1": -1.9, "robust z-score, replicate 2": -1.2, "robust z-score, replicate 3": -1.83, "outcome": "inactive"}

Next records follow:
| gene | robust z-score, replicate 1 | robust z-score, replicate 2 | robust z-score, replicate 3 | outcome |
| --- | --- | --- | --- | --- |
| LINC00303 (long independently transcribed non-coding RNA 303) | 1.13 | 0.569 | 0.936 | inactive |
| SNAPC5 (small nuclear RNA activating complex polypeptide 5) | -1.11 | -0.173 | -0.77 | inactive |
| SAMD9L (sterile alpha motif domain containing 9 like) | -0.57 | -0.863 | -0.592 | inactive |
| YPEL1 (yippee like 1) | 0.154 | -0.107 | -1.79 | inactive |
| PYROXD1 (pyridine nucleotide-disulphide oxidoreductase domain 1) | 0.7 | 0.254 | 0.324 | inactive |
| TLR1 (toll like receptor 1) | -0.708 | -0.949 | -1.73 | inactive |
| TOR4A (torsin family 4 member A) | 0.0373 | 0.0941 | -1.31 | inactive |
| PPIAP74 (peptidylprolyl isomerase A pseudogene 74) | 0.657 | -0.21 | -0.25 | inactive |
| CCR9 (C-C motif chemokine receptor 9) | 0.0626 | 0.131 | -0.313 | inactive |
| PCLO (piccolo presynaptic cytomatrix protein) | 0.464 | -0.513 | -0.16 | inactive |
| KIAA1671 | 0.308 | 0.276 | -0.276 | inactive |
| TINAG (tubulointerstitial nephritis antigen) | 0.326 | 1.22 | -0.242 | inactive |
| NOL11P1 (NOL11 pseudogene 1) | -0.257 | 0.328 | 0.149 | inactive |
| CMPK2 (cytidine/uridine monophosphate kinase 2) | -0.486 | -0.0118 | -1.03 | inactive |
| ZNF136 (zinc finger protein 136) | 0.675 | 0.64 | 0.446 | inactive |
| HHLA1 (HHLA1 neighbor of OC90) | -0.375 | -0.953 | 0.391 | inactive |
| LOC613266 | -0.441 | -0.446 | -0.0137 | inactive |
| CCDC68 (coiled-coil domain containing 68) | -0.421 | -0.684 | -0.802 | inactive |
| MACROH2A2 (macroH2A.2 histone) | -1.59 | -0.769 | 0.331 | inactive |
| LOC389048 (retired record) | 0.0751 | -0.0576 | -0.215 | inactive |
| TTC9C (tetratricopeptide repeat domain 9C) | -1.09 | -1.23 | -1.12 | inactive |
| SEMA3B (semaphorin 3B) | -1.24 | 0.358 | -0.405 | inactive |
| OR1L4 (olfactory receptor family 1 subfamily L member 4) | 0.582 | 0.33 | 0.48 | inactive |
| IRX1 (iroquois homeobox 1) | 0.33 | 0.473 | 0.76 | inactive |
| ZBTB7C (zinc finger and BTB domain containing 7C) | 0.189 | -0.103 | 0.0498 | inactive |
| AGT (angiotensinogen) | -0.205 | 0.415 | -0.379 | inactive |
| IRF5 (interferon regulatory factor 5) | 0.259 | 2.02 | 0.804 | inactive |
| LOC400552 (retired record) | -1.37 | -1.09 | -0.659 | inactive |
| NUB1 (negative regulator of ubiquitin like proteins 1) | -0.555 | -0.772 | 0.187 | inactive |
| WASHC5 (WASH complex subunit 5) | -0.607 | 0.122 | -1.39 | inactive |
